Laboratory results: patent publication US20240114772A1, “ORGANIC ELECTROLUMINESCENT DEVICE” (SFC CO., LTD., priority 2021, published 2024)

Assay: Emission characteristics of solution-processed organic light emitting device
Conditions: device with compound as host, dopant <BD> (3 wt %), light emitting layer spin coated from 2 wt % methyl benzoate solution, measured at 10 mA/cm2

## [2H]c1c([2H])c([2H])c(-c2c3ccccc3c(-c3c(CCC)c4ccccc4c4ccccc34)c3ccccc23)c([2H])c1[2H] [Compound 55]
  Driving voltage (V): 4.48 V
  Efficiency (Cd/A): 4.0 Cd/A

## CC(C)c1cc(-c2c3ccccc3c(-c3cc4ccccc4c4ccccc34)c3ccccc23)cc(C(C)C)c1 [Compound 46]
  Driving voltage (V): 4.62 V
  Efficiency (Cd/A): 3.8 Cd/A
